These results are taken from PubChem BioAssay AID248 (DTP/NCI, 2004).

The assay deals with L1210 leukemia ip in BDF1 mice, survival T/C. Kind of assay: NCI In Vivo Anticancer Drug Screen. Data for tumor model L1210 Leukemia (intraperitoneal) in B6D2F1 (BDF1) mice. The settings on record: T/C endpoint: mean survival time, higher T/C = longer survival.
The mark [1] stands for this setting: dose: 100.0 mg/kg/injection, schedule: Q04DX003 (ip), vehicle: saline.
Where [2] appears, read: dose: 200.0 mg/kg/injection, schedule: Q04DX003 (ip), vehicle: saline.
Setting [3] is: dose: 400.0 mg/kg/injection, schedule: Q04DX003 (ip), vehicle: saline.
[4] abbreviates: dose: 100.0 mg/kg/injection, schedule: Q01DX005 (ip), vehicle: saline.
The mark [5] stands for this setting: dose: 200.0 mg/kg/injection, schedule: Q01DX005 (ip), vehicle: saline.
[6] abbreviates: dose: 400.0 mg/kg/injection, schedule: Q01DX005 (ip), vehicle: saline.
[7] abbreviates: dose: 200.0 mg/kg/injection, schedule: Q01DX009 (ip), vehicle: Klucel (hydroxypropylcellulose) (HPC).

Molecules are shown by their SMILES. The list does not hold the whole screen: it is rich in T/C values a quarter to a half above the control, in often repeated tests (any T/C) and in doses without a T/C. Further doses and runs are listed elsewhere. T/C gives the treated animals as a percentage of the vehicle group. Some entries give survivors of the animals treated and no T/C: the source files T/C as zero there, which appears to mark a toxic dose or a test without result, not a measured value. Some doses without a T/C left all or most animals alive at the check, yet need not have been tolerated: the source hardly ever lists a survival T/C far under the control, and the zero likely stands for such cases as well. Counts of survivors are from the toxicity check (mostly the fifth day) where no day follows; animals may have died later. Schedule codes are those of the source, read here as Q, the interval in days (D) or hours (H), X, the number of doses. Some doses were run more than once; their values stand side by side, smallest first. Some schedule codes hold Z or #, which are not explained here. Some molecules as drawn cover several salts, stereoisomers or complexes of the source; a dose is that of the sample tested. Signs of the kind (2×) stand for listed records that agree. Where survival is the endpoint, the PubChem record calls one and a half times the control and up active, and a quarter to a half above the control has no call in these data; cut-offs in other NCI protocols can differ. Some T/C values are followed by the survivors on the day toxicity was checked, most often the fifth; where none is given, no animal had died by that day.

As for `Cc1ccc[n+](CCCCCCCC[n+]2cccc(C)c2)c1`, the survivor count is listed as 0 of 6 under setting [1], 0 of 6 under setting [2] and 0 of 6 under setting [3].
For the molecule `CC(CCCOS(C)(=O)=O)OS(C)(=O)=O` (configuration not stated), the survivor count reads like this: (dose: 100.0 mg/kg/injection, schedule: Q04DX002 (ip), vehicle: Klucel (hydroxypropylcellulose) (HPC)) 3 of 3; (dose: 200.0 mg/kg/injection, schedule: Q04DX002 (ip), vehicle: Klucel (hydroxypropylcellulose) (HPC)) 1 of 3; (dose: 400.0 mg/kg/injection, schedule: Q04DX002 (ip), vehicle: Klucel (hydroxypropylcellulose) (HPC)) 0 of 3.
`COc1ccccc1N1C(N)=NC(N)=NC1(C)C`: the survivor count reads like this: (dose: 25.0 mg/kg/injection, schedule: Q01DX009 (ip), vehicle: saline) 6 of 6; (dose: 100.0 mg/kg/injection, schedule: Q01DX009 (ip), vehicle: saline) 2 of 6 and 3 of 6; under setting [1], 0 of 6; under setting [2], 2 of 6; under setting [3], 0 of 6.
With `CCC[N+]1(C)CCOCC1`, the survivor count runs as follows: (dose: 150.0 mg/kg/injection, schedule: Q01DX001 (ip), vehicle: saline) 0 of 6 and 1 of 6; (dose: 300.0 mg/kg/injection, schedule: Q01DX001 (ip), vehicle: saline) 0 of 6 (2×).
In the case of `CCN(CC)CC(O)CNc1cc(C)nc(/N=C(\N)Nc2ccc(Cl)c(Cl)c2)n1` (configuration not stated), the survivor count reads like this: (dose: 100.0 mg/kg/injection, schedule: Q01DX009 (ip), vehicle: saline with Tween-80) 2 of 6; (dose: 200.0 mg/kg/injection, schedule: Q01DX009 (ip), vehicle: saline with Tween-80) 0 of 6; (dose: 400.0 mg/kg/injection, schedule: Q01DX009 (ip), vehicle: saline with Tween-80) 0 of 6.
As for `NC(CSSc1ccccc1)=NCC12CC3CC(CC(C3)C1)C2`, the survivor count (dose: 40.0 mg/kg/injection, schedule: Q01DX001 (ip), vehicle: carboxymethylcellulose (CMC)) is 0 of 6; the survivor count (dose: 75.0 mg/kg/injection, schedule: Q01DX001 (ip), vehicle: carboxymethylcellulose (CMC)) is on record as 0 of 6; the survivor count (dose: 150.0 mg/kg/injection, schedule: Q01DX001 (ip), vehicle: carboxymethylcellulose (CMC)) is reported as 0 of 6; the survivor count (dose: 300.0 mg/kg/injection, schedule: Q01DX001 (ip), vehicle: carboxymethylcellulose (CMC)) was 0 of 6.
In the case of `Nc1nc(=O)n(C2OC(CO)C(O)C2O)cc1F` (configuration not stated), the T/C by setting is: (dose: 0.19 mg/kg/injection, schedule: Q#A X020 (ip), vehicle: saline) 131 and 140 % of control; (dose: 0.38 mg/kg/injection, schedule: Q01DX010 (ip), vehicle: saline) 132 % of control; (dose: 0.75 mg/kg/injection, schedule: Q01DX010 (ip), vehicle: saline) 149 % of control; (dose: 0.75 mg/kg/injection, schedule: Q01DX010 (sc), vehicle: saline) 129 % of control; (dose: 1.25 mg/kg/injection, schedule: Q03DX004 (ip), vehicle: saline) 130 % of control; (dose: 1.5 mg/kg/injection, schedule: Q01DX010 (im), vehicle: saline) 142 % of control. Besides, the T/C by setting is: (dose: 1.5 mg/kg/injection, schedule: Q01DX010 (sc), vehicle: saline) 137 % of control; (dose: 3.0 mg/kg/injection, schedule: Q01DX010 (ip), vehicle: saline) 149 % of control [5 of 6 alive]; (dose: 5.0 mg/kg/injection, schedule: Q07DX002 (ip), vehicle: saline) 130 % of control; (dose: 6.0 mg/kg/injection, schedule: Q01DX006 (iv), vehicle: saline) 143 % of control; (dose: 8.0 mg/kg/injection, schedule: Q01DX009 (oral), vehicle: saline) 131 % of control; (dose: 10.0 mg/kg/injection, schedule: Q07DX002 (ip), vehicle: saline) 127 % of control. The T/C was 149 % of control (dose: 12.0 mg/kg/injection, schedule: Q#A X020 (ip), vehicle: saline); 144 % of control (dose: 12.5 mg/kg/injection, schedule: Q01DX010 (oral), vehicle: saline); 135 % of control (dose: 16.0 mg/kg/injection, schedule: Q01DX009 (oral), vehicle: saline); 126 and 131 % of control (dose: 20.0 mg/kg/injection, schedule: Q01DX001 (ip), vehicle: saline); 143 and 146 % of control (dose: 20.0 mg/kg/injection, schedule: Q01DX005 (ip), vehicle: saline); 136 % of control (dose: 20.0 mg/kg/injection, schedule: Q07DX002 (ip), vehicle: saline). The T/C by setting is: (dose: 20.0 mg/kg/injection, schedule: Q07DX Z (ip), vehicle: saline) 137 % of control; (dose: 32.0 mg/kg/injection, schedule: Q01DX009 (oral), vehicle: saline) 144 % of control; (dose: 40.0 mg/kg/injection, schedule: Q01DX001 (ip), vehicle: saline) 132 % of control; (dose: 40.0 mg/kg/injection, schedule: Q01DX005 (ip), vehicle: saline) 144 % of control; (dose: 40.0 mg/kg/injection, schedule: Q07DX Z (ip), vehicle: saline) 137 % of control; (dose: 50.0 mg/kg/injection, schedule: Q01DX005 (ip), vehicle: saline) 134 (2×), 156, 159, 160, 162 (2×), 164, 168, 169, 170, 179, 185 (2×), 193, 211 % of control [5 of 6 alive]. In addition, the T/C reads like this: (dose: 80.0 mg/kg/injection, schedule: Q01DX001 (ip), vehicle: saline) 125 and 140 % of control; (dose: 80.0 mg/kg/injection, schedule: Q07DX Z (ip), vehicle: saline) 132 % of control; (dose: 96.0 mg/kg/injection, schedule: Q01DX010 (sc), vehicle: saline) 146 % of control; under setting [4], 100, 102 [6 of 7 alive], 154, 155, 156, 162, 168, 175 (2×), 175 [6 of 7 alive], 176, 179 (2×), 187, 194, 195, 212, 217 % of control; (dose: 160.0 mg/kg/injection, schedule: Q01DX001 (ip), vehicle: saline) 127, 129, 134, 142 % of control; (dose: 160.0 mg/kg/injection, schedule: Q01DX005 (ip), vehicle: saline) 143 % of control. Besides, the T/C was 91, 117, 122, 146, 174, 175, 179 (2×), 186 (2×), 194, 220, 236, 272 % of control under setting [5]; 132 and 138 % of control (dose: 320.0 mg/kg/injection, schedule: Q01DX001 (ip), vehicle: saline); 127 % of control (dose: 400.0 mg/kg/injection, schedule: Q01DX001 (ip), vehicle: saline); 102, 143, 162, 168, 169 % of control under setting [6]; 125 % of control (dose: 512.0 mg/kg/injection, schedule: Q01DX001 (oral), vehicle: saline); 142 and 149 % of control (dose: 640.0 mg/kg/injection, schedule: Q01DX001 (ip), vehicle: saline). For the same molecule, the T/C (dose: 1024.0 mg/kg/injection, schedule: Q01DX001 (oral), vehicle: saline) was 134 % of control. In addition, the survivor count reads like this: under setting [4], 6 of 6; under setting [5], 6 of 7 and 6 of 6; under setting [6], 3 of 7, 3 of 6, 4 of 7, 6 of 7, 6 of 6.
With `N#CC(C#N)=Cc1ccccc1[N+](=O)[O-]`, the survivor count is 3 of 6 (dose: 100.0 mg/kg/injection, schedule: Q01DX Z (ip), vehicle: methylcellulose (MC)) and 0 of 6 (dose: 200.0 mg/kg/injection, schedule: Q01DX Z (ip), vehicle: methylcellulose (MC)).
Consider `ClN=C(c1ccccc1)c1ccccc1`, for which the survivor count (dose: 100.0 mg/kg/injection, schedule: Q01DX009 (ip), vehicle: Klucel (hydroxypropylcellulose) (HPC)) was 3 of 6; the survivor count under setting [7] is recorded as 1 of 6; the survivor count (dose: 400.0 mg/kg/injection, schedule: Q01DX009 (ip), vehicle: Klucel (hydroxypropylcellulose) (HPC)) is on record as 0 of 6; the survivor count (dose: 400.0 mg/kg/injection, schedule: Q04DX003 (ip), vehicle: Klucel (hydroxypropylcellulose) (HPC)) was 2 of 6.
`CC(NC(=O)c1ccccc1)C(=O)O` (configuration not stated): the survivor count under setting [7] is recorded as 6 of 6.
